Reference: paper PMC5239482
Results are given in words; binding and its absence hold for the method and conditions named. In cells and extracts the contact can be indirect. Some results given as binding are weak or reduced against the parent protein; the word gives no strength.

By UniProt entry, the sequences of proteins in these tests, tags left out. Residues count along the entry.
UniProt Q03135: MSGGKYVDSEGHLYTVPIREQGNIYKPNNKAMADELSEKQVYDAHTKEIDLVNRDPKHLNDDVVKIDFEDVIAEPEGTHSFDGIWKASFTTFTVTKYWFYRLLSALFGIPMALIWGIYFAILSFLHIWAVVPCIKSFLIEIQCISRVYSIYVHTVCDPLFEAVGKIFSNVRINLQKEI
UniProt P08069, residues 31-1367: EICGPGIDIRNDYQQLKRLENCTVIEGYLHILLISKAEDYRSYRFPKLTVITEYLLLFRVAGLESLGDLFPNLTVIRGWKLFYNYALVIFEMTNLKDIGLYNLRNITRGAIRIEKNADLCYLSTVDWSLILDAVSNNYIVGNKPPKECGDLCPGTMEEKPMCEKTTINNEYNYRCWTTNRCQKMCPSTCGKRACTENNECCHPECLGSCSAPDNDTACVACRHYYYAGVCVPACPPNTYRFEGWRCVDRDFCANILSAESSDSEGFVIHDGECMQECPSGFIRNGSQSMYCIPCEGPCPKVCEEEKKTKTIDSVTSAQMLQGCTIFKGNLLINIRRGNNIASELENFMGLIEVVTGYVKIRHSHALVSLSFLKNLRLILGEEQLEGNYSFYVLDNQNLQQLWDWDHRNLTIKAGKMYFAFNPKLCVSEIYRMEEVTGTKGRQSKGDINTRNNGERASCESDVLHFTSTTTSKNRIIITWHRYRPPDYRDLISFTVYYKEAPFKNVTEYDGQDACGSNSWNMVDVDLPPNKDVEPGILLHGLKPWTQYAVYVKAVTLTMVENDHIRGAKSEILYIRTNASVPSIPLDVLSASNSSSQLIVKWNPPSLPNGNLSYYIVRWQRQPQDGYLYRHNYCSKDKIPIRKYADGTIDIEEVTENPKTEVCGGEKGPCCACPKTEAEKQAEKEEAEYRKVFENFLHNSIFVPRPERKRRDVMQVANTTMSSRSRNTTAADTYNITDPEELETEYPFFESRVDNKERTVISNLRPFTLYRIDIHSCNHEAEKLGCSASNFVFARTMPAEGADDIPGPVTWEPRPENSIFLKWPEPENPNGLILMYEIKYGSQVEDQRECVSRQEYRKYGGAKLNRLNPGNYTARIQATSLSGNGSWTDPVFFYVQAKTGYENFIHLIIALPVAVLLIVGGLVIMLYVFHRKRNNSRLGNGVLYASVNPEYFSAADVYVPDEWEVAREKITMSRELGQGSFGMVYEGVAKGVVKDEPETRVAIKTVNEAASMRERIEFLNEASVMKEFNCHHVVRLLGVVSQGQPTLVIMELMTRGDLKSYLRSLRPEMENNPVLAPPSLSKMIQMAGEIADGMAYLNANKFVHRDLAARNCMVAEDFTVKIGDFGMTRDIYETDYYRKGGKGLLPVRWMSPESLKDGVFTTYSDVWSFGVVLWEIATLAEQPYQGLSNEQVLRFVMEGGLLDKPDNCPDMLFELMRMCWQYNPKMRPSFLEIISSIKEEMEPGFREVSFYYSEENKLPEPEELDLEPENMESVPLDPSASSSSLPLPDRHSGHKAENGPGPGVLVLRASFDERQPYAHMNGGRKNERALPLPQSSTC
UniProt P08047: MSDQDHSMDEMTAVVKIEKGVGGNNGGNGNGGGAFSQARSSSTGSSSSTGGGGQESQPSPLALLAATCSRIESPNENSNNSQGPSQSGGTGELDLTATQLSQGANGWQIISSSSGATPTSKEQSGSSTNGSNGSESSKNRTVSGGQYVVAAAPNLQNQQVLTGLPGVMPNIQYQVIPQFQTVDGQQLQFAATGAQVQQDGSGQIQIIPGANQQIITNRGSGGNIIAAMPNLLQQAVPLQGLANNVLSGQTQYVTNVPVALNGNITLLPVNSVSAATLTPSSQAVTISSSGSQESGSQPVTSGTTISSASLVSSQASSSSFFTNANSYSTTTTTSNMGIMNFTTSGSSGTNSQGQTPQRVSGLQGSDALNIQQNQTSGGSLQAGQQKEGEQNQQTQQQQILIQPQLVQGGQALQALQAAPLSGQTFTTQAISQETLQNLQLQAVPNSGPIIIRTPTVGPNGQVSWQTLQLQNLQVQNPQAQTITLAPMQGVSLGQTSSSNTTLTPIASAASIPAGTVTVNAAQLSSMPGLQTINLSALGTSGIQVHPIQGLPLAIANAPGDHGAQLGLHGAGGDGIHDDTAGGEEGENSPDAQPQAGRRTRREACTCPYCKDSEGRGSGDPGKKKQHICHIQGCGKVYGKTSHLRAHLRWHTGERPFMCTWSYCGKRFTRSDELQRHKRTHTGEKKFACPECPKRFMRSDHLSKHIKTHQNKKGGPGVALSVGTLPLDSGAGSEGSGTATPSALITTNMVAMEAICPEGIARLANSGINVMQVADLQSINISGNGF
UniProt Q96CW1: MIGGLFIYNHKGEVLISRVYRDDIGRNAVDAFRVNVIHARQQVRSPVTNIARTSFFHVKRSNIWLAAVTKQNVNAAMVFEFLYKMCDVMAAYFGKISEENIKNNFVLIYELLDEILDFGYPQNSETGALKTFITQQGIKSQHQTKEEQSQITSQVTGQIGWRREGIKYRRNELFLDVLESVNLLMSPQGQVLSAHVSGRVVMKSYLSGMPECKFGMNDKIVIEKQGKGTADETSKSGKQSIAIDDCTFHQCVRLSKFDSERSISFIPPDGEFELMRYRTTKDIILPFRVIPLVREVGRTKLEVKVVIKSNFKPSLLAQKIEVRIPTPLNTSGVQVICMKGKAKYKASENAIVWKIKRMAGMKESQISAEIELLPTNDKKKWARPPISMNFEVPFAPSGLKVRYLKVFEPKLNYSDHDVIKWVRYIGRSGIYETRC

What follows are substances tested against Caveolin-1, endogenous in VCaP cells (human (endogenous in VCaP)) (UniProt Q03135) (assay: co-IP; VCaP cell lysates, endogenous proteins; anti-CAV1 (or anti-IgG as control) overnight at 4°C, protein A/G agarose beads, immunoblot).

binding | Substance
binds | Insulin-like growth factor-1 receptor, endogenous in VCaP cells (from UniProt P08069 31-1367)
binds | Transcription factor Sp1, endogenous in VCaP cells (from UniProt P08047 1-785)
binds | AP-2 complex subunit mu, endogenous in VCaP cells (from UniProt Q96CW1 1-435)
